The values that follow come from patent publication US12730111B2, “Systems, methods, and compositions to identify new protein targets of a chemical compound or its derivatives” (priority 2019, dated 2026).

For this series, the system named is HeLa cells. As to the kind of experiment: Anti-PVS immunoprecipitation and proteomic identification of tagged proteins in HeLa cells. The settings on record: 1 mM for 30 min.

For the molecule `C=CS(=O)(=O)c1ccccc1` [PVS, Phenyl vinyl sulfone], the “number of target proteins tagged both by PVS and PVSN” value was determined as 103; the “number of target proteins tagged by this compound only” value is recorded as 70.

For `C=CS(=O)(=O)Oc1ccccc1` [PVSN, phenyl vinyl sulfonate], the “number of target proteins tagged both by PVS and PVSN” value was determined as 103; the “number of target proteins tagged by this compound only” value is recorded as 10.
